Reference: patent US20080280834A1, “Compounds and methods for inhibiting apoptosis” (University of Pittsburgh of the Commonwealth System of …, priority 2005, published 2008)
No constants are given. Whether binding was seen depends on the method and setting. Some results given as binding are weak or reduced against the parent protein; the word gives no strength.

By UniProt entry, the sequences of proteins in these tests, tags left out. Where a name states a change or a piece, a line headed by the entry shows the natural chain unless it says otherwise. Residues count along the entry.
UniProt P25445, residues 26-173: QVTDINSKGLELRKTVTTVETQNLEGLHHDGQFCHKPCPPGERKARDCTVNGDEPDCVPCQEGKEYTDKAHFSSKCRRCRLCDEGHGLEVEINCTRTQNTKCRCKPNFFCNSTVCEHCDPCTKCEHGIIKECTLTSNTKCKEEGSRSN
UniProt P08581, residues 25-307: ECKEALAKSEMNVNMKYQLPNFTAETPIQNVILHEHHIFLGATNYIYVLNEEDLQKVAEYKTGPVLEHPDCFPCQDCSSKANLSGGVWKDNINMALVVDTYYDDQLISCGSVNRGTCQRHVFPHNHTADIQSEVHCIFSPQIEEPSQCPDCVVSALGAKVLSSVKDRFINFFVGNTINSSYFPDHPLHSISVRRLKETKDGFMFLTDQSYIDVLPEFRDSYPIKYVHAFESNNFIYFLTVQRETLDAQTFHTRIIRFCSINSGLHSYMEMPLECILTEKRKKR

Target: Recombinant Human Fas/TNFRSF6/Fc Chimera (human) (UniProt P25445)
Assay: initial studies, method not described

binding: binds
Substance: α-Met (from UniProt P08581 25-307) (receptor)
